Results: patent US20080219970A1
These are yes or no findings as the source states them, for the method shown. Some entries that bind do so weakly or less than the wild type.

By UniProt entry, the sequences of proteins in these tests, tags left out. Where a name states a change or a piece, a line headed by the entry shows the natural chain unless it says otherwise. Residues count along the entry.
UniProt P00747, residues 97-810: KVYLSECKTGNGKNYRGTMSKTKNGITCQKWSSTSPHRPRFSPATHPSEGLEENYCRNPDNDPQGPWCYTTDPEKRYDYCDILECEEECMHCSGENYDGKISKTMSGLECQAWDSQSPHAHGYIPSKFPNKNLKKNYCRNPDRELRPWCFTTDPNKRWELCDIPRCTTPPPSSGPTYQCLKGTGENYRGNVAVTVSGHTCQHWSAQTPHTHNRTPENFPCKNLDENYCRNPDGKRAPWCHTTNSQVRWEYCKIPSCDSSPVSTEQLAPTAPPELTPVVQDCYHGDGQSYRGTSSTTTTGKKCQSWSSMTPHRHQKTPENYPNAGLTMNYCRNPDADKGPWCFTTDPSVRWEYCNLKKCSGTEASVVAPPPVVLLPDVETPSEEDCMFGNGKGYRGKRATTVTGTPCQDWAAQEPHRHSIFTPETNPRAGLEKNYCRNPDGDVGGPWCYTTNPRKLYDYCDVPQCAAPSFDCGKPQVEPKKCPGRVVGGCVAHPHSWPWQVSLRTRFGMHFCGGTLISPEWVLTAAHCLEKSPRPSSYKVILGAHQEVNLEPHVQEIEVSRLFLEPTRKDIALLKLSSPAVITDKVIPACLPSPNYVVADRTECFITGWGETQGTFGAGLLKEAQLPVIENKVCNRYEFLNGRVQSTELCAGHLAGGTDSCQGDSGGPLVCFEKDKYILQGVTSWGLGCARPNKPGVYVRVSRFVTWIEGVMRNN
UniProt Q9GP15: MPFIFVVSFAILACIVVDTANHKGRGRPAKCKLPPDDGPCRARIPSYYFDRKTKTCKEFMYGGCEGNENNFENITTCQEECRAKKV

Key:
plasmin [1] = target: plasmin (UniProt P00747); assay: SPR (BIAcore 3000), Ir-CPI immobilized
plasmin [2] = target: plasmin (UniProt P00747); assay: SPR (BIAcore 3000), Ir-CPI immobilized on CM5 chip (1500 RU), factor at 100 nM as analyte

Substance: Ir-CPI (Ixodes ricinus Contact Phase Inhibitor), recombinant, without its peptide signal (from UniProt Q9GP15 20-86)
- binding (plasmin [1]): binds
- binding (plasmin [2]): binds
